Some of the results follow. Single values are uncertain here, since repeats match poorly.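 Human kidney-derived cells stably carry a construct in which eight TEAD-binding elements drive luciferase, measured by luminescence in a drug-repurposing library screen. A hit is any compound whose signal exceeds the plate mean by more than five robust Z scores.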
Tested on: HEK293A TEAD-LUC reporter
Assay: TEAD-luciferase reporter activity (YAP activation), robust Z score vs plate; higher = stronger YAP/TEAD activation
Details: 24 h

SMILES	TEAD-luciferase reporter activity (compound concentration: 200 nM)	TEAD-luciferase reporter activity (compound concentration: 2 uM)	TEAD-luciferase reporter activity (compound concentration: 10 uM)
CC1(C)S[C@@H]2[C@H](NC(=O)c3nc4ccccc4nc3C(=O)O)C(=O)N2[C@H]1C(=O)O	inactive: -0.293	inactive: -0.0456	inactive: -0.685
COc1cccc(CN2CCCCC23Cc2ccccc2CNC3=O)c1 (stereo unspecified)	inactive: 0.482		inactive: -1.23
Oc1ccc(CCNCCCCCCNCCc2ccccc2)cc1O	inactive: 1.43	inactive: -0.718	active: 13.4
CN(Cc1ccc(C(F)(F)F)cc1)C1CCc2ccccc21 (stereo unspecified)	inactive: -1		active: 7.03
C=C1C(=O)O[C@@H]2[C@H]3O[C@]3(C)CC/C=C(\C)CC[C@@H]12 [Parthenolide]	inactive: 0.283	inactive: -2.45	inactive: 0.609
CN(Cc1ccccc1)C(=O)[C@H](Cc1ccc2ccccc2c1)NC(=O)[C@@H]1C[C@@H](O)CN1C(=O)c1cn(C)c2ccccc12	inactive: 1.45	inactive: -0.251	inactive: 1.83
Cc1ccc(NC(=O)c2ccc(CN3CCN(C)CC3)cc2)cc1Nc1nc(-c2cccnc2)cs1 [masitinib]	inactive: -0.532	active: 6.12	inactive: 1.65
CC12CCC(=O)CC1CCC1C2CCC2(C)C(C(=O)COC(=O)CCC(=O)O)CCC12 (stereo unspecified)	inactive: -1.48	inactive: -0.551	inactive: -1.66
C[C@]12CCC(=O)C=C1CC[C@@H]1[C@@H]2[C@@H](O)C[C@@]2(C)[C@H]1CC[C@]2(O)C(=O)COC(=O)CCC(=O)[O-]	inactive: 1.31		inactive: -0.586
C[C@]12CCC(=O)C=C1CC[C@@H]1[C@@H]2[C@@H](O)C[C@@]2(C)[C@H]1CC[C@]2(O)C(=O)COC(=O)CCC(=O)[O-] [Hydrocortisone sodium succinate]		inactive: 0.12	
NC(=O)[C@@H]1CCCN1C(=O)[C@H](Cc1cnc[nH]1)NC(=O)[C@@H]1CC(=O)N1	inactive: -1.67	inactive: -0.359	inactive: 4.84
NC1(C(=O)N[C@@H](CCO)c2ccc(Cl)cc2)CCN(c2ncnc3[nH]ccc23)CC1	inactive: 0.321	inactive: 1.66	inactive: 3.2
COc1nc(C(Cl)(Cl)Cl)c(Cl)c(OC)c1Cl	inactive: -0.177	inactive: 1.1	inactive: 0.3
CC(=O)NC[C@H]1CN(c2ccc(N3CCN(C(=O)COP(=O)(O)O)CC3)c(F)c2)C(=O)O1	inactive: -0.84	inactive: -0.16	inactive: 1.86
CC(C)n1nc(-c2cccc(Cl)c2Cl)c(=N)[nH]c1=N [Palatrigine]	inactive: -0.793	inactive: 0.976	inactive: 1.6
COC(=O)[C@@H]1C[C@H](Oc2ccc(Cl)cc2)CN1	inactive: 2.4	inactive: -1.28	inactive: 1.08
CCN(c1nc(C)cc(N2CC=C(c3cccc(F)c3)CC2)n1)c1ccc(C(C)C)cc1SC	inactive: -0.282	inactive: 0.172	inactive: -1.2
CC1CCN(C(=O)[C@H](CCCNC(=N)N)NS(=O)(=O)c2cccc3c(N(C)C)cccc23)CC1	inactive: -1.22	inactive: -1.05	inactive: -0.506
CCC(=O)NCC[C@@H]1CCc2ccc3c(c21)CCO3 [ramelteon]	inactive: 0.195	inactive: -0.19	inactive: -1.59

SMILES	TEAD-luciferase reporter activity (compound concentration: 200 nM)	TEAD-luciferase reporter activity (compound concentration: 2 uM)	TEAD-luciferase reporter activity (compound concentration: 10 uM)
Cn1cc(-c2ccc(S(=O)(=O)n3ccc(/C=C/C(=O)Nc4ccccc4N)c3)cc2)cn1	active: 7.63	active: 5.12	inactive: 4.01
CC/C(=C(/c1ccc(/C=C/C(=O)O)cc1)c1ccc2[nH]ncc2c1)c1ccc(F)cc1Cl	inactive: -0.187	inactive: 1.42	inactive: 0.588
COc1ccc2[nH]c(S(=O)Cc3ncc(C)c(OC)c3C)nc2c1 (stereo unspecified) [Omeprazole sodium]		inactive: -1.35	
COc1ccc2[nH]c(S(=O)Cc3ncc(C)c(OC)c3C)nc2c1 (stereo unspecified)	inactive: -0.212		active: 5.47
COc1ccc2[nH]c(S(=O)Cc3ncc(C)c(OC)c3C)nc2c1 (stereo unspecified) [Esomeprazole sodium]		inactive: 2.87	
CNCC/C=C/1\c2ccccc2C2C(c3c1cccc3)C2 (stereo unspecified)	inactive: -0.871	inactive: -0.997	inactive: 2.85
CCC(CC)(CC(=O)Nc1cccc(/C=C/c2nc(C(C)C)cs2)c1)C(=O)O	inactive: -1.94	inactive: -0.44	inactive: 0.82
CC(C)CCOc1ccc(NC(=S)Nc2ccc(OCCC(C)C)cc2)cc1	inactive: -2.65	inactive: -0.407	inactive: -0.256
COc1cc(C(C)=O)ccc1O [Apocynin]	inactive: -0.95	inactive: -1.87	inactive: 2.4
OC(CNc1ccccc1)CN1CCN(CCCC(c2ccc(F)cc2)c2ccc(F)cc2)CC1 (stereo unspecified)	inactive: -1.84	inactive: 0.692	inactive: 3.1
CCCCCCC1(C(=O)OC)CO1 (stereo unspecified)	inactive: -1.19	inactive: -0.762	inactive: -0.983
Nc1ccc(S(=O)(=O)O)cc1	inactive: -1.13	inactive: -0.418	inactive: -0.0155
CS(=O)(=O)OCC(OS(C)(=O)=O)C(O)C(O)C(COS(C)(=O)=O)OS(C)(=O)=O (stereo unspecified)	inactive: -1.06	inactive: -0.268	inactive: -0.0909
OCC(O)CN1CCN(c2ccccc2)CC1 (stereo unspecified) [levodropropizine]	inactive: -1.51	inactive: -1.14	inactive: -0.399
COc1ccc2[nH]c3c(c2c1)CCN[C@]31CS[C@@H]2c3c(OC(C)=O)c(C)c4c(c3[C@H](COC1=O)N1[C@@H]2[C@H]2c3c(cc(C)c(OC)c3O)C[C@@H]([C@@H]1O)N2C)OCO4 [Lurbinectedin]	inactive: -1.34		inactive: 0.881
COc1ncc(-c2nc3c(n2C(C)C)[C@H](c2ccc(Cl)cc2)N(c2cc(Cl)cn(C)c2=O)C3=O)c(OC)n1	inactive: 0.666	inactive: -0.712	inactive: 3.89
COCCCN1CC[C@H](CNC(=O)c2cc(Cl)c(N)c3c2OCC3)[C@@H](O)C1	inactive: 0.235	inactive: -0.768	inactive: -0.583
N[C@@H](Cc1ccc(B(O)O)cc1)C(=O)O [Boronophenylalanine]	inactive: -0.935	inactive: -1.17	inactive: -0.556
COC(=O)C1=C(C)NC(C)=C(C(=O)OC/C=C/c2ccc(Cn3ccnc3)cc2)C1c1cccc([N+](=O)[O-])c1 (stereo unspecified)	inactive: -1.05	inactive: -1.93	inactive: -1.92

Reprinted at random: 3 entries already listed.
SMILES	TEAD-luciferase reporter activity (compound concentration: 200 nM)	TEAD-luciferase reporter activity (compound concentration: 2 uM)	TEAD-luciferase reporter activity (compound concentration: 10 uM)
COC(=O)[C@@H]1C[C@H](Oc2ccc(Cl)cc2)CN1	inactive: 2.4	inactive: -1.28	inactive: 1.08
CC(C)CCOc1ccc(NC(=S)Nc2ccc(OCCC(C)C)cc2)cc1	inactive: -2.65	inactive: -0.407	inactive: -0.256
COc1ccc2[nH]c(S(=O)Cc3ncc(C)c(OC)c3C)nc2c1 (stereo unspecified) [Esomeprazole sodium]		inactive: 2.87	

(list continues)

SMILES	TEAD-luciferase reporter activity (compound concentration: 200 nM)	TEAD-luciferase reporter activity (compound concentration: 2 uM)	TEAD-luciferase reporter activity (compound concentration: 10 uM)
Cc1ccc(NC(=O)c2nc[nH]c2C)cc1Cl	active: 9.67	inactive: 1.96	inactive: 0.95
COc1ccc(-c2ccc(S(=O)(=O)NC(CC(C)C)C(=O)O)cc2)cc1 (stereo unspecified)	inactive: -0.673	inactive: -1.74	inactive: -0.73
CC(C)(C)C(=O)c1ccc(C(=O)O)cc1	inactive: -2.57	inactive: -0.203	inactive: -0.468
CCCCc1nc(Cl)c(CO)n1Cc1ccc(-c2ccccc2-c2nn[nH]n2)cc1 [losartan potassium]	inactive: -2.51	inactive: -1.89	inactive: 2.33
C=CCN1C(=O)CS/C1=N\NC(=S)NC	inactive: -1.37	inactive: -0.577	inactive: -2.76
CC(C)[C@H](N)C(=O)OCC(CO)OCn1cnc2c(O)nc(N)nc21 (stereo partly specified) [valganciclovir]	inactive: 0.194		inactive: 2.49
CNC(=O)[C@H](C/C=C/c1ccc(N(C)c2ncccn2)cc1)NC(=O)c1c(Cl)cccc1Cl	inactive: -0.164	inactive: -1.47	inactive: -0.728
CN(CC1(C)CCCO1)S(=O)(=O)c1ccc(Cl)c(S(N)(=O)=O)c1 (stereo unspecified) [Mefruside]	inactive: 0.256	inactive: 1.18	inactive: 2.26
O=C1NC(=O)C2(CCc3ccccc3C2)N1 (stereo unspecified)	inactive: -1.5	inactive: 3.43	inactive: 0.074
NC(=O)N(CCO)/N=C/c1ccc([N+](=O)[O-])o1	inactive: 0.129	inactive: -0.257	inactive: 0.922
CN(C)c1ccccc1CSc1cccc(O)c1 [analog of MOXYFETIN]	inactive: 0.215	inactive: 1.88	inactive: -0.252
Nc1cc(-c2ccncc2)c[nH]c1=O [amri]	inactive: -1.14	inactive: -1.71	inactive: -1.47
Cc1nc(O)c(C#N)cc1-c1ccncc1 [milri]		inactive: 0.77	
Nc1nc2c(ncn2[C@H]2C[C@H](O)[C@@H](CO)O2)c(=O)[nH]1	inactive: 0.0744		inactive: -0.291
Nc1nc2c(ncn2[C@H]2C[C@H](O)[C@@H](CO)O2)c(=O)[nH]1 [Deoxyguanosine]		inactive: -0.234	
COC(=O)c1cc2nc([S+]([O-])Cc3ncccc3C)[nH]c2cc1C (stereo unspecified)	inactive: -0.266	inactive: -0.231	inactive: 0.175
CC1CCN(CCCC(=O)c2ccc(F)cc2)CC1 [melperone]		inactive: -2.05	
CC1CCN(CCCC(=O)c2ccc(F)cc2)CC1 [Metylperon]	inactive: -0.455		inactive: -1.36
OCC1O[C@@H]2OC3C(CO)O[C@@H](OC4C(CO)O[C@@H](OC5C(CO)O[C@H](OC6C(CO)O[C@@H](OC7C(CO)O[C@@H](OC8C(CO)O[C@@H](OC9C(CO)O[C@H](OC1[C@H](O)[C@@H]2O)[C@@H](O)[C@H]9O)[C@@H](O)[C@H]8O)[C@@H](O)[C@H]7O)[C@@H](O)[C@H]6O)[C@@H](O)[C@H]5O)[C@@H](O)[C@H]4O)[C@@H](O)[C@H]3O (stereo partly specified)	inactive: 0.335	inactive: -1.97	inactive: 1.79

— the supplement of paper PMC10735217
